PubChem BioAssay AID493246 – Drosophila RNAi Screening Center, 2011

Test: 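Identify essential fly genes by loss of cell viability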 (primary screen)
System: Drosophila Kc and S2R+ cells
Reagents: long dsRNA against Drosophila genes
Detection: 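Cell number per well after knock-down, printed as raw plate values; calls were based on per-plate z-scores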
Reading the numbers: Kc cell number and S2R+ cell number: higher = more cells remaining
Hit rule: 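Active when the per-plate z-score of cell number is 3 or more in the direction of fewer cells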
The screen tested about 21,000 reagents; shown is an unselected part of those that have a named target and a result. Of all reagents, 429 (2%) got an active call. 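Values are raw and not normalised between plates; calls rest on per-plate z-scores that were not deposited.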 Entries without a mark were called inactive. The numbers tell different reagents against one gene apart. A plus sign joins genes that one reagent is predicted to hit. The record does not give: the amount of reagent, the time to read-out.

gene,reagent,"Kc cell number, rep 1","Kc cell number, rep 2","S2R+ cell number, rep 1","S2R+ cell number, rep 2"
CG43897,1,1.53e6,1.42e6,9.36e5,9.84e5
CG43897,2,1.34e6,1.26e6,1.28e6,1.33e6
mRpL38,1,1.35e6,1.39e6,9.28e5,1.01e6
CG1233,1,1.38e6,1.42e6,1.33e6,1.31e6
CG33467,1,1.50e6,1.47e6,9.90e5,1.14e6
CG2182,1,1.45e6,1.49e6,1.21e6,1.26e6
CG32606 (retired record),1,2.50e5 (active),2.75e5,4.17e5,5.50e5
CG32606 (retired record),2,1.54e6,1.52e6,1.06e6,1.12e6
CG32606 (retired record),3,1.50e6,1.38e6,1.01e6,1.13e6
CG32606 (retired record),4,1.54e6,1.52e6,9.94e5,1.09e6
CG15082,1,1.71e6,1.73e6,1.18e6,1.41e6
CG9626,1,1.44e6,1.57e6,1.25e6,1.30e6
CG12111,1,1.61e6,1.65e6,1.06e6,1.26e6
glob2,1,1.42e6,1.65e6,1.36e6,1.59e6
nero,1,4.91e5,,7.52e5,
CG32091,1,1.58e6,1.57e6,1.22e6,1.30e6
CG32091,2,1.51e6,1.48e6,1.22e6,1.36e6
CG11586,1,1.55e6,1.59e6,1.26e6,1.22e6
Ser12,1,1.43e6,1.48e6,9.80e5,1.16e6
Dcr-2,1,1.62e6,1.91e6,1.35e6,1.50e6
CG31606,1,1.41e6,1.48e6,9.61e5,1.07e6
twe,1,1.32e6,1.32e6,1.37e6,1.36e6
Cyp6a9,1,1.76e6,1.94e6,1.49e6,1.60e6
sn,1,1.49e6,1.47e6,1.02e6,1.12e6
Pus1,1,1.36e6,1.35e6,1.04e6,1.12e6
CG12831,1,1.69e6,1.87e6,1.24e6,1.39e6
RluA-2,1,1.27e6,1.46e6,1.24e6,1.31e6
serp,1,1.29e6,1.40e6,1.29e6,1.33e6
serp,2,1.33e6,1.46e6,1.31e6,1.37e6
CG11889 + CG11891,1,1.45e6,1.51e6,1.06e6,1.14e6
CG11889 + CG11891,2,1.63e6,1.72e6,1.03e6,1.09e6
Adck5,1,1.38e6,1.54e6,1.41e6,1.54e6
Idh3g,1,1.56e6,1.52e6,1.02e6,1.07e6
CG1575,1,4.89e5,,8.81e5,
CG11755,1,1.49e6,1.67e6,1.35e6,1.57e6
Egm,1,1.37e6,1.52e6,1.19e6,1.19e6
CG3841,1,1.56e6,1.60e6,1.18e6,1.32e6
RhoGAP19D,1,1.63e6,1.64e6,9.89e5,1.04e6
RhoGAP19D,2,1.53e6,1.63e6,1.11e6,1.20e6
Pex7,1,1.39e6,1.70e6,1.09e6,1.22e6

5 entries from above, ordered by “Kc cell number, rep 2”, lowest first.
gene,reagent,"Kc cell number, rep 1","Kc cell number, rep 2","S2R+ cell number, rep 1","S2R+ cell number, rep 2"
CG32606 (retired record),1,2.50e5 (active),2.75e5,4.17e5,5.50e5
CG32606 (retired record),3,1.50e6,1.38e6,1.01e6,1.13e6
CG2182,1,1.45e6,1.49e6,1.21e6,1.26e6
CG32606 (retired record),2,1.54e6,1.52e6,1.06e6,1.12e6
CG32606 (retired record),4,1.54e6,1.52e6,9.94e5,1.09e6
